# Laboratory results published in PubChem BioAssay AID638 (SRMLSC, 2007).
# About 65 (5%) of roughly 1,300 compounds were called active.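 The calls were made as follows: active = growth inhibition reaching a set limit at one or more tested doses; inactive = the rest.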 The list shows a part of the results. Measured potencies and affinities stand elsewhere.
# Assay: growth inhibition of wild-type E. coli, dose response, BW25113 wild type, OD615 (AID 638)
# Settings: at 100 µM (top of the series)
# Procedure, shortened: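 Assay system: E. coli BW25113 wild type. Doses: compound concentration series. Timing: 20 h compound exposure, 37 °C. Technique: OD615 absorbance. Medium: LB broth containing kanamycin at 50 µg/mL. Benchmarks: chloramphenicol at 30 µM final as inhibition control. Measure: IC50 from 4-parameter logistic, bounds fixed 0–100%.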
row,SMILES,growth inhibition
1,Clc1ccc(COC(Cn2ccnc2)c2ccc(Cl)cc2Cl)c(Cl)c1 (centres undefined),active: 10.9%
2,Cc1nn(-c2ccccc2)c(Cl)c1C1C(C#N)=C(N)Oc2c1c(=O)oc1ccccc21 (centres undefined),inactive: 3.35%
3,N=c1c2c(n(Cc3ccc(Cl)cc3Cl)c3c1CCC3)CCCC2,inactive: 16%
4,N=C(N)c1c(O)n(C2CCCCC2)c(=O)n(C2CCCCC2)c1=O,inactive: -4.62%
5,CCC(=Nc1ccc(OC)cc1OC)c1c(O)n(C2CCCCC2)c(=O)[nH]c1=O,inactive: -2.11%
6,Cc1ccccc1C1=NCC(=O)N(CC(=O)NCc2ccco2)c2sc3c(c21)CCCC3,inactive: -2.01%
7,Clc1ccc(COC(Cn2ccnc2)c2ccc(Cl)cc2Cl)cc1 (centres undefined),inactive: 4.14%
8,FC(F)(F)c1ccc2c(c1)nnn2C1CCN(Cc2nnnn2Cc2ccccc2)CC1,inactive: -4.25%
9,Cc1ccc(C2C(S(C)(=O)=O)=C(O)C(=O)N2c2ccccc2)cc1 (centres undefined) (tested in a mixture with another compound),inactive: 5.08%
10,CCCCN1C(=O)NC(=O)C2(Cc3c(nc4c(C)cccn4c3=O)N3CCc4ccccc4C32)C1=O (centres undefined),inactive: -3.03%
11,CCn1nc(-c2ccccc2)nc2c(=O)n(C)c(=O)nc1-2,inactive: 17.9%
12,Cc1ccc(CN2C(=O)NC(=O)C3(Cc4c(nc5ccccn5c4=O)N4CCCCCC43)C2=O)cc1 (centres undefined),inactive: -1.32%
13,CCOC(=O)C1=C(N)OC2=C(C(=O)CCC2)C12C(=O)N1c3c(ccc(C)c32)C(C)=CC1(C)C (centres undefined),inactive: 7.09%
14,CCC(=NCc1ccc2c(c1)OCO2)c1c(O)n(C2CCCCC2)c(=O)[nH]c1=O,inactive: -5.3%
15,Nc1c(C(=O)NCCc2ccccc2)c2nc3ccccc3nc2n1CCN1CCOCC1,inactive: -7.05%
16,CCCCn1c(O)c(C(CC)=NCCc2ccccc2)c(=O)[nH]c1=O,inactive: 1.9%
17,CCCCCCN=C(CC)c1c(O)n(CCCC)c(=O)[nH]c1=O,inactive: 4.71%
18,CCOC(=O)c1c(-c2ccc(OC)cc2)oc2ccc(OC(=O)N(C)C)cc12,inactive: -0.99%
19,CC(C)CCOC(=O)c1c(N)n(CC2CCCO2)c2nc3ccccc3nc12 (centres undefined),inactive: 9.75%
20,Cc1cccn2c(=O)c3c(nc12)N1CCC(Cc2ccccc2)CC1C1(C3)C(=O)N(C)C(=O)N(C)C1=O (centres undefined),inactive: 7.02%
21,CN(C)C1(c2nnnn2CCOC(=O)Nc2ccc(Cl)cc2)CCCCC1,inactive: 4.48%
22,CCCCCCn1c(N)c(C(=O)NCCN2CCOCC2)c2nc3ccccc3nc21,inactive: -1%
23,CCOC(=O)c1c(-c2ccccc2)oc2ccc(OC(=O)N(C)C)cc12,inactive: 5.66%
24,CC(C)(C)n1c(O)c(C=Nc2ccc3c(c2)CCC3)c(=O)[nH]c1=O,inactive: -6.7%

# Random excerpt: 2 compounds from above
row,SMILES,growth inhibition
10,CCCCN1C(=O)NC(=O)C2(Cc3c(nc4c(C)cccn4c3=O)N3CCc4ccccc4C32)C1=O (centres undefined),inactive: -3.03%
24,CC(C)(C)n1c(O)c(C=Nc2ccc3c(c2)CCC3)c(=O)[nH]c1=O,inactive: -6.7%
